Values quoted from earlier work in patent US8450339B2, “Compositions for treatment of common cold” (Takeda Pharma A/S, priority 2001, dated 2013).

Details: aqueous solution

For CC(C)[N+]1(C)[C@@H]2CC[C@H]1CC(OC(=O)C(CO)c1ccccc1)C2.[Br-] (stereo partly shown) [ipratropium bromide], the “Stability optimum, pH” value is listed as 3.5.
